Assay results reported in PubChem BioAssay AID588590 (National Center for Advancing Translational Sciences (NCATS), 2011).
About 4,000 (1%) of roughly 390,000 compounds were called active. The inconclusive results got no clear call from the source; some entries with a clear call stand among them for comparison. The call rests on the fitted dose curve; in most records, active means well fitted inhibition curve with a large enough effect; inconclusive means small, poorly fitted or top-dose-only effect, or another doubt; inactive means no such curve, though single readings can be large or run the other way. Potencies beside an inconclusive call are fits to weak or partial responses and may not hold up.

Amino acid sequences for entries named in this document (tags omitted). A change or cut given only in a name is not applied to a line headed by its entry.
UniProt Q9UNA4: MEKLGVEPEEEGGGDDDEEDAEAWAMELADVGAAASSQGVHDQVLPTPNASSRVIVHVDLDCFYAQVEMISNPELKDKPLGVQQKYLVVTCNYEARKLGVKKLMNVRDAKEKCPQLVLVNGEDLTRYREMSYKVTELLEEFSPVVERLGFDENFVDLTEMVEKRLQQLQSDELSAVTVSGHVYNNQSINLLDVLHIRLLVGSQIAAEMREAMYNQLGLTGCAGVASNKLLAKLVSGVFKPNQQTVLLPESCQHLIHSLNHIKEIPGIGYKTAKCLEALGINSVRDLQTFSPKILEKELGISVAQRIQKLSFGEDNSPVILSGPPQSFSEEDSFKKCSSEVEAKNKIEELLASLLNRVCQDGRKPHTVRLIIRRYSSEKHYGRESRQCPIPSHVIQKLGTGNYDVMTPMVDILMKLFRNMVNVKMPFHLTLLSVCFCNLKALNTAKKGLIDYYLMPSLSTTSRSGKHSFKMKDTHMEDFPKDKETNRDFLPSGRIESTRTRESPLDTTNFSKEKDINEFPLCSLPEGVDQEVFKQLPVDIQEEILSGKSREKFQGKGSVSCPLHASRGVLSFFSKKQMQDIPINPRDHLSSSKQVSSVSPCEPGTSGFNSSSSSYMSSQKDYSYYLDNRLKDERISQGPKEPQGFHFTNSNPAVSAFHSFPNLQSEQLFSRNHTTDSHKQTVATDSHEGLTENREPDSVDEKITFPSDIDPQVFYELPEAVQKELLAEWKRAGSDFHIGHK

Each molecule was assayed against DNA polymerase iota (Homo sapiens) (UniProt Q9UNA4) (assay: qHTS for Inhibitors of Polymerase Iota). Details: Pol iota fluorescent replication assay, 10 min; series mostly up to 115 µM.
Outline: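 Pol iota at 10 nM preincubated 15 min with compounds at room temperature; reaction started with fluorescent substrate, 50 nM final. Fluorescence read kinetically at 0 and 10 min; buffer-only wells as negative control.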
Potency means the concentration at half of the fitted maximal effect.

SMILES	Potency
O=C(Cn1ncc2c3ccccc3n(Cc3cccc(Cl)c3)c2c1=O)N1CCCCC1	inactive
COc1ccc(C2=NN(c3nc(-c4ccccc4)c(CC(=O)O)s3)C(c3ccco3)C2)cc1 (centres undefined)	inconclusive: 14.1 µM [inhibitor, partial curve, poor fit]
COC(=O)C1=C(C(=O)OC)SC2(S1)C(C(=O)OC)=C(C(=O)OC)SC1=C2c2cc(C)ccc2NC1(C)C	inconclusive: 35.5 µM [inhibitor, partial curve, poor fit]
CNC(=S)N1N=C(c2cccs2)CC1c1ccc(F)cc1 (centres undefined)	inconclusive: 89.1 µM [inhibitor, single point]
CN1CCN(S(=O)(=O)c2ccc(Nc3ccc(F)cc3)c([N+](=O)[O-])c2)CC1	inconclusive: 89.1 µM [inhibitor, single point]
COc1ccc(C(=O)C(CCCCC(CN(C)C)C(=O)c2ccc(OC)cc2)CN(C)C)cc1 (centres undefined)	inactive
CCCCNC(=O)CS(=O)Cc1nc(-c2ccc(C)cc2)oc1C (centres undefined)	inconclusive: 79.4 µM [inhibitor, single point]
COc1ccccc1OCC(=O)Sc1ccc(C)cc1	inconclusive: 3.16 µM [inhibitor, full curve, poor fit]
CC1CC1C(=O)Nc1nc(-c2cccs2)c(-c2cccs2)s1 (centres undefined)	inconclusive: 79.4 µM [inhibitor, partial curve, poor fit]
CCOc1cc(C(=O)N/N=C/C(Br)=C/c2ccccc2)cc(OCC)c1OCC	inactive
CN(C)S(=O)(=O)N(CC(=O)NCCSc1ccc(Cl)cc1)c1ccccc1	inconclusive: 79.4 µM [inhibitor, single point]
Cc1c(-c2ccc(Cl)cc2Cl)nc2ccccc2c1C(=O)NCCN1CCOCC1	inconclusive: 3.98 µM [inhibitor, partial curve, poor fit]
CCOc1ccccc1CNC(=O)C1CCN(Cc2cc3ccccc3n2Cc2ccccc2)CC1	inactive
CC(C)(C)n1ncc2c(=O)n(Cc3cc(F)ccc3Cl)cnc21	inconclusive: 39.8 µM [inhibitor, partial curve]
NC(=O)c1nsc(C(=O)N(CC(=O)NC2CCCC2)Cc2ccc3c(c2)OCO3)c1N	inconclusive: 14.1 µM [inhibitor, partial curve, poor fit]
COc1cccc(NS(=O)(=O)c2ccc3[nH]cc(C(=O)NCCc4ccc(C)cc4)c(=O)c3c2)c1	inconclusive: 89.1 µM [inhibitor, single point]
Cc1cc(C)c2oc(C(=O)Nc3nc4ccc(Cl)cc4s3)cc(=O)c2c1	inactive
COc1ccccc1NC(=O)C1(C)Cc2ccccc2C(=O)O1 (centres undefined)	inconclusive: 10 µM [inhibitor, full curve, poor fit]
C#CCn1c(=NC(=O)CSC(C)=O)sc2cc(F)ccc21	inconclusive: 31.6 µM [inhibitor, partial curve, poor fit]
O=c1[nH][nH]c(C(F)(F)F)c1C=Nc1ccccc1	inactive

SMILES	Potency
COc1ccc(N(CC(=O)Nc2cc(C)ccc2OC)S(=O)(=O)c2c(C)noc2C)cc1	inconclusive: 22.4 µM [inhibitor, full curve, poor fit]
COC(=O)[C@]1(C)N[C@H](CN(C)S(=O)(=O)c2ccc(C)cc2)[C@@H]2C(=O)N(C)C(=O)[C@@H]21	inconclusive: 25.1 µM [inhibitor, single point]
O=C(COCc1cc(-c2ccc3c(c2)OCO3)on1)N1CCN(c2cccc(C(F)(F)F)c2)CC1	inconclusive: 28.2 µM [inhibitor, full curve, poor fit]
COc1cccc(/C=C/C(=O)OCC(=O)NCCC2=CCCCC2)c1	inactive
C=C1CCN(c2ccc(C(=O)NCc3ccccc3)cc2[N+](=O)[O-])CC1	inconclusive: 39.8 µM [inhibitor, single point]
O=c1c2ccccc2nc2n1CCCCC2	inactive
N#Cc1c(NC(=O)c2ccccc2)sc2c1CCC2	inconclusive: 39.8 µM [inhibitor, single point]
CS(=O)(=O)Nc1ccc(-c2cn3c(n2)SCC3)cc1	inconclusive: 28.2 µM [inhibitor, partial curve, poor fit]
CCN1CCCC1CN(Cc1cc2cc(C)cc(C)c2[nH]c1=O)C(=O)Nc1ccccc1OC (centres undefined)	inconclusive: 17.8 µM [inhibitor, partial curve, poor fit]
CCCN1CCCc2cc(CN(CCCN3CCOCC3)C(=O)Nc3ccc(OCC)cc3)ccc21	inconclusive: 56.2 µM [inhibitor, partial curve, poor fit]
CC(=O)O[C@H]1C2OC(=O)C(C)=C2[C@@H]2OC(=O)[C@]3(CCC4OC41C)OC23 (some centres undefined)	inactive
Cc1ccc2nc(CSc3nnc(Nc4ccccc4F)s3)cc(=O)n2c1	inconclusive: 25.1 µM [inhibitor, single point]
COc1ccc(-c2cn[nH]c2-c2ccc(OCc3ccccc3F)cc2O)cc1OC	inconclusive: 10 µM [inhibitor, full curve, poor fit]
O=C(Nc1cc([N+](=O)[O-])ccc1O)c1ccc2c(c1)C(=O)N(Cc1ccco1)C2=O	active: 39.8 µM
COC(=O)C1=C(C)NC2=C(C(=O)c3ccccc32)C1c1ccc(-c2ccc(C(=O)O)cc2)o1 (centres undefined)	inconclusive: 35.5 µM [inhibitor, single point]
CC(=O)N1CCc2c(sc(NC(=O)CSc3ccc(C)cc3)c2-c2nc3ccccc3s2)C1	inconclusive: 89.1 µM [inhibitor, single point]
COc1cccc(N2CC(=O)N(NC(=O)CSc3nc(C)cc(C)c3C#N)CC2=O)c1	inconclusive: 89.1 µM [inhibitor, partial curve, poor fit]
CCn1c(CN2CCC(C)CC2)nc2cc(NC(=O)c3cccc([N+](=O)[O-])c3)ccc21	inactive

Exported in markdown: 3 of the compounds above

| SMILES | Potency |
| --- | --- |
| Cc1ccc2nc(CSc3nnc(Nc4ccccc4F)s3)cc(=O)n2c1 | inconclusive: 25.1 µM [inhibitor, single point] |
| COc1ccc(-c2cn[nH]c2-c2ccc(OCc3ccccc3F)cc2O)cc1OC | inconclusive: 10 µM [inhibitor, full curve, poor fit] |
| CCn1c(CN2CCC(C)CC2)nc2cc(NC(=O)c3cccc([N+](=O)[O-])c3)ccc21 | inactive |
